Results from US20120009123A1, “Albumin binding peptide-mediated disease targeting” (ABRAXIS BIOSCIENCE, LLC, priority 2008, published 2012).
These are yes or no findings as the source states them, for the method shown. Some results given as binding are weak or reduced against the parent protein; the word gives no strength.

Protein sequences, listed by entry. Tags and fused reporters are not part of them. Residues count along the entry.
UniProt P02768, residues 25-609: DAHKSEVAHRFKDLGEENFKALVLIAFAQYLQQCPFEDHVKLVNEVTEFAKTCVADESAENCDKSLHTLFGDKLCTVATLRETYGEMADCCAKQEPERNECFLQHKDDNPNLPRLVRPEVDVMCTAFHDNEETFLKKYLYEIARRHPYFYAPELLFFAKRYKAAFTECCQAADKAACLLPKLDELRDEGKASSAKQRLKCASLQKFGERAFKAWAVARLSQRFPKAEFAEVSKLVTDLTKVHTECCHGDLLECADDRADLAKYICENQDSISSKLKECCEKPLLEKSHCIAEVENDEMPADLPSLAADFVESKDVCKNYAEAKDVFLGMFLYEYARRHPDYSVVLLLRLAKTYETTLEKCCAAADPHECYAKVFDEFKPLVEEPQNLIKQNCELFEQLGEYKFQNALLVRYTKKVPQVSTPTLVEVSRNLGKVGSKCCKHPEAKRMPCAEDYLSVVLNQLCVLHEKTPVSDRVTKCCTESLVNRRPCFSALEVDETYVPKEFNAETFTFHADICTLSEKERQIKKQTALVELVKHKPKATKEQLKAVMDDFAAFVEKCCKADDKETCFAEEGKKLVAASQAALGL

Columns and labels:
[1] = biological target: human serum albumin spiked with Alexa fluor 488 conjugated bovine serum albumin (human) (UniProt P02768); test: competitive binding assay with SPARC sub-fragment peptides (FIG. 9)
human serum albumin = biological target: T1, human serum albumin (human, UniProt P02768 25-609); test: M13 12-mer phage display, four rounds of panning on coated HSA, sequencing of about 100 plaques
T1 construct: also called HSA; human albumin

[2] = biological target: human serum albumin spiked with Alexa fluor 488 conjugated bovine serum albumin (human) (UniProt P02768); test: competitive binding assay, peptide against binding of Alexa 488-BSA/HSA to SPARC, two experiments

binding [1]: binds
binding ([1]; record 2): binds
binding (human serum albumin): binds
binding [2]: binds
Binder: WPHHHHTRLSTV […]
